Results are given in words; binding and its absence hold for the method and conditions named. Binding seen in cells or lysates may run through a third protein. A yes stands for co-enrichment or nearness to the bait. Other partners may have been found.
Biological target: GAC (bait of the immunoprecipitation followed by mass spectrometry) (human) (UniProt O94925)
Assay: affinity purification with mass spectrometry; immunoprecipitation of GAC followed with mass spectrometry analysis; cells and antibody not stated

Sequences of proteins named here, by UniProt entry; tags and fusion partners are left off. A change or cut given only in a name is not applied to a line headed by its entry. A line that says so, or that is headed by a name, gives the form on record, which may keep a tag or linker.
GAC (bait of the immunoprecipitation followed by mass spectrometry) (O94925, form named): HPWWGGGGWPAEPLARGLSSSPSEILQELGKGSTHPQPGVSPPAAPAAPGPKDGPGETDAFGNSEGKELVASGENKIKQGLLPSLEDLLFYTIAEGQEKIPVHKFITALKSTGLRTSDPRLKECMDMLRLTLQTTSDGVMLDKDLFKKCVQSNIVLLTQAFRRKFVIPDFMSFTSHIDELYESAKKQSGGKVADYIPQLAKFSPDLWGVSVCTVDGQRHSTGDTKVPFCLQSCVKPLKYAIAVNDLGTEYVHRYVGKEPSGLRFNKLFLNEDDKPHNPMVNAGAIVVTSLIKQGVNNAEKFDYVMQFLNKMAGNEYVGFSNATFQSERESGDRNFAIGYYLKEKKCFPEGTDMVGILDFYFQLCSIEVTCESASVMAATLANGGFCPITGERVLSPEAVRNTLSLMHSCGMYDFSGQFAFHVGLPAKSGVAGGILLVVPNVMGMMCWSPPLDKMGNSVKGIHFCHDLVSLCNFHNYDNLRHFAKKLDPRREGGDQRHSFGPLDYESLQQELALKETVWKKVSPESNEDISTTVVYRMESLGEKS
UniProt P19474: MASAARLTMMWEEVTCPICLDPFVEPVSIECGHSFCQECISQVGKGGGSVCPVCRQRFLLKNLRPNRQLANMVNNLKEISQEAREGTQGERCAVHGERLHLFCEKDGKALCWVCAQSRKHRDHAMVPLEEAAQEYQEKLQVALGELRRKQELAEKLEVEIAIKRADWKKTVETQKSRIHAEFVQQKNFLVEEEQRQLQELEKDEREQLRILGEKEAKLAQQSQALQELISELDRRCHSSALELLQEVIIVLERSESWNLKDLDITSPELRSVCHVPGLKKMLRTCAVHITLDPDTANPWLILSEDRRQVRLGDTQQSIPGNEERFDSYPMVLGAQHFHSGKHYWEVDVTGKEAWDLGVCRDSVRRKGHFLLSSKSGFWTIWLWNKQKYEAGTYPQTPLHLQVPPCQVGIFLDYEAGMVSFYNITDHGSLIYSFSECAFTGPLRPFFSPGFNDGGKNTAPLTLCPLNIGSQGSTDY

**Q.** Which binding does the source give for “TRIM21 (Tripartite motif containing-21), identified by mass spectrometry in the GAC immunoprecipitate (from UniProt P19474 1-475) (enzyme)” here?
**A.** binds

— publication PMC9295053
